What all share (test): Method 1: intracellular Ca2+ release (FLIPR, Calcium 5) in recombinant CHO-K1 cells
One assay deals with human S1PR1 receptor (Homo sapiens, UniProt P21453). As to conditions: read-out: S1P1 EC50; (1): determined with method 1. The procedure: (§1) Agonistic activity was measured using two different methods, described below.
(§2) Method 1. Intracellular Ca^2+ Release
(§3) Agonist potency and intrinsic activity was assessed by measurement of intracellular Ca^2+ release. Recombinant CHO-K1 cells (Euroscreen, Brussels, Belgium) expressing human S1PR5, S1PR1, S1PR3 or S1PR4 receptors, aequorin, and GTP binding protein Gq/i5 were cultured using a medium containing nutrient mixture F-12 Ham (Sigma-Aldrich) with 10% FBS, and 100 μg/mL gentamicin and equilibrated at 5% CO2.
(§4) 15.000 cells in 20 μL medium were seeded into Biocoat poly-D-Lysine coated 384 well plates (Becton Dickinson #35-6663) and grown to 95% confluency after 24 h.
(§5) Culture medium was replaced by an assay buffer consisting of HBBS with Ca^2+ and Mg^2+ (Invitrogen #14025-050), 20 mmol/L Hepes (Sigma-Aldrich #H-3375), 2.5 mmol/L probenecid (Sigma-Aldrich #P-8761, and 0.1% BSA (Sigma-Aldrich #A-7030) pH 7.4. The Calcium 5 no-wash FLIPR assay kit (Molecular Devices #5000625) was performed as described in the kit instructions. Cells were incubated with Calcium 5 dye for 1 h at 37° C., 5% CO2 in the dark. After 45 min adaptation to RT assessment of agonist stimulation of intracellular Ca^2+ release was performed by addition of test compounds at concentrations obtained by serial dilution. Phospho-fingolimod was used as positive control. Antagonists were pre-incubated for 10 min with cells before addition of the agonist (phospho-fingolimod at EC80). Measurements were performed using a fluorometric imaging plate reader FLIPR® tetra (Molecular Devices). Agonist at the human S1P receptors were characterized by deducing EC50 (potency) values from a nonlinear fit to the measured fluorescence raw data after normalization to the reference agonist (phospho-fingolimod) curve.

Chains of the proteins cited; added tags and fusions are not shown.
UniProt P21453, whole entry: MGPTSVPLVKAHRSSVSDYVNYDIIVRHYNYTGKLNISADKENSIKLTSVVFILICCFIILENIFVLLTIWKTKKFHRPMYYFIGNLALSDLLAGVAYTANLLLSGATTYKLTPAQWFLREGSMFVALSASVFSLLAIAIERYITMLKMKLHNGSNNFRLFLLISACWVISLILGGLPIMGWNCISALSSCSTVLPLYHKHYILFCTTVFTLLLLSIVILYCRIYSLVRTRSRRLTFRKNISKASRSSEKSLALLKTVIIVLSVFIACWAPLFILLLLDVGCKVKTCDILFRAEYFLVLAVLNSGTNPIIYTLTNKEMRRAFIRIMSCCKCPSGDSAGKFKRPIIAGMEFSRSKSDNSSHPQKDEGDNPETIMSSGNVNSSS
UniProt Q99500, whole entry: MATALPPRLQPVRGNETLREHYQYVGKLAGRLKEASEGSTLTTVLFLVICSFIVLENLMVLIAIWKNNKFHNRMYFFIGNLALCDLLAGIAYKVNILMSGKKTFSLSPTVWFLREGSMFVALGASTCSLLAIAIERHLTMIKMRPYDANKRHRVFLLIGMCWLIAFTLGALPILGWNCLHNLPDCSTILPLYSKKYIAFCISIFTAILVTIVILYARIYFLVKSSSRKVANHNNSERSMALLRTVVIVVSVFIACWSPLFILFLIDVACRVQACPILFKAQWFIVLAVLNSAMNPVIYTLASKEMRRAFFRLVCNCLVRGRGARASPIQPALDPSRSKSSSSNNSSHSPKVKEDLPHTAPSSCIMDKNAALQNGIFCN
UniProt Q9H228, whole entry: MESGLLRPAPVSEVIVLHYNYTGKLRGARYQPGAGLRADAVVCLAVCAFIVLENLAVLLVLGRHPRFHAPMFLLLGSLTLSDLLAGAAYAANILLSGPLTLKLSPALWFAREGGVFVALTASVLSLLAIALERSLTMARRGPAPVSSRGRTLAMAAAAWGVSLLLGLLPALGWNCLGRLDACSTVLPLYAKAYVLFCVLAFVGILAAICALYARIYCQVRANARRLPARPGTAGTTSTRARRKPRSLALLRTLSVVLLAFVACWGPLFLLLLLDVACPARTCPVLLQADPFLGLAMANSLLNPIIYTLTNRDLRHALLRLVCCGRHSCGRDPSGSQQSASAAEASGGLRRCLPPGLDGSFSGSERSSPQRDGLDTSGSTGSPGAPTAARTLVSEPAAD

The next assay concerns the target human S1PR3 receptor (Homo sapiens, UniProt Q99500). As to conditions: read-out: S1P3 EC50; (1): determined with method 1. The procedure: as §1, §2, §3, §4, §5
Another assay addresses human S1PR5 receptor (Homo sapiens, UniProt Q9H228). As to conditions: read-out: S1P5 EC50 range; agonist potency, determined with method 1 (symbols A-D). The procedure:
as §1, §2, §3, §4, §5

This is an account of results in patent US10556907B2 (AbbVie Inc., priority 2015, dated 2020).

The structures given here were assigned with low confidence; some may be wrong.

`O=C(O)CCN1Cc2ccc(-c3cccc(OCc4c(Cl)cccc4Cl)c3)nc2C1`: the EC50 is over 1 µM at human S1PR1 receptor, over 1 µM on human S1PR3 receptor and 1 to 10 µM on human S1PR5 receptor.
